Assay results: patent US20060177440A1

B1: SH51 (Fab, V domains shown)
VH: EVQLLESGGGVVQPGRSLRLACAASGFSFRSYGMHWVRQAPGRGLEWVAFTWFDGSNKYYVDSVKGRFTISRDNSKNTLYLEMNSLRVDDTAVYYCAREASMLRGISRYYYAMDVWGPGTTVTVSS
VL: AELTQSPSFLSASVGDRVTITCRASQGIRSYLAWYQQKPGKAPKLLIYAASTLQSGVPSRFSGSGSGTEFTLTISSLQPEDFATYYCQQLNNYPPFTFGPGTKVDIKR
B2: SH54 (Fab, V domains shown)
VH: EVQLLESGGGVVQPGRSLRLSCAASGFTFSRNGMHWVRQAPGKGLEWVAFIWFDGSNKYYADSVKGRFTISRDNSKNTLYLQMNSLRADDTAVYYCAREEALFRGLTRWSYGMDVWGQGTTVSVSS
VL: AELTQSPSSMSASVGDRVTITCRASQSIGTYLNWYQQKPGKAPKLLIYAASSLQSGVPSRFSGSGSGTDFTLTISSLQPEDFATYYCQQSYSTPWTFGQGTKVEIKR
B3: SH55 (Fab, V domains shown)
VH: EVQLLESGGGVVQPGRSLRLSCVVSGFTFNNYGMHWVRQAPGKGLEWVAVIWFDGSNKYYADSVKGRFTISRDNSKNTLYLQMNSLRAEDTAVYYCARENQIKLWSRYLYYFDYWGQGTLVTVSS
VL: AELTQPPSASGTPGQRVTISCSGSSSNIGSKYVYWYQQLPGTAPKLLIYSNNQRPSGVPDRFSAFKSGTSASLAITGLQAEDEANYYCQSYDSGLSGWVFGGGTKLTVL
B4: SH56 (Fab, V domains shown)
VH: EVQLLESGGGVVQPGRSLRLSCAASGFTFSSYGMHWVRQAPGKGLEWVAVVYYDGSNKHYSDSVKGRFTIFRDNSKNTLYLQMDSLRAEDTAVYYCARERNFRSGYSRYYYGMDVWGPGTTVTVSS
VL: AELTQSPSSLSASVGDRVTITCRASQSISRYLNWYQQKPGKAPKLLIYAASSLQSGVPSRFSGSGSGTDFALTISSLLPEDFATYYCQQGYSTPPYSFGQGTKLEIKR
B5: SH24 (Fab, V domains shown)
VH: EVQLLESGGGVAQPGRSLRLSCVASGFSLRSYGMHWVRQAPGKGLEWVADIWFDGSNKDYADSVKGRFTISRDNSKNTLYLQMNSLRAEDTAVYYCARDWRVRAFSSGWLSAFDIWGQGTMVTVSS
VL: AELTQSPSSLSASVGDRVTITCRASQSISTYLNWYQQRPGKAPNLLIYAASTLQRGVPSRFTGSGSGTDFTLTISSLQPEDFATYYCQQSYTTLWTFGQGTKMEIRR
B6: SH32 (Fab, V domains shown)
VH: EVQLLESGGGVVQPGRSLRLSCEASKFTLYNYGMHWVRQAPGKGLEWVAFIWFDGSNKYYEDSVKGRFTVSRDNSKNTLYLQMNSLRAEDTAVYYCARELSKKVALSRYYYYMDVWGQGTTVTVSS
VL: AELTQEPSLTVSPGGTVTLTCASSTGAVTSRYFPNWFQQKPGQAPRALIYGSNNKHSWTPARFSGSLLGGKAALTLSGVQPEDEAEYYCLLFYAGAWAFGGGTKLTVL
B7: SH36 (Fab, V domains shown)
VH: B6 VH with L100G
VL: B2 VL with M10L, G29S, T30S, A42S, W95P, T96A, Q99P, E104D
B8: SH39 (Fab, V domains shown)
VH: VQLLEQSGGGVVQPGRSLRLSCAASGFTFSSYGMHWVRQAPGKGLEWVAVIWFDGSNKEYADSVKGRFTISRDNSKNTLYLQMNSLRAEDTAVYYCAREEVVRGVILWSRKFDYWGQGTLVTVSS
VL: AELTQSPSSLSASVGDRVTITCRASQTIGRYLNWYQQRPGKAPKLLVYAVSSLQSGAPSRFSGSGSGTHFTLTITSLQPEDFATYFCQQSYSSPFTFGQGTKVEIKR
B9: SH53 (Fab, V domains shown)
VH: EVQLLESGGGGVQPGRSLRLSCAASGFTFNSYAMYWVRQPPGKGLEWVAAIWYDGSNKEYADFVKGRFTISRDNSKNTLSLQMNSLRDEDTAVYYCAREANLLRGWSRYYYGMDVWGQGTTVTVSS
VL: AELQDPVVSVALGQTVRITCQGDGLRSYYASWYQQKPGQAPKLVMYGRNNRPSGIPGRFSGSSSGQTAALTITGTQAEDEADYYCQSRATSGNPVVFGGGTKLTVL
B10: SH10 (Fab, V domains shown)
VH: B2 VH with E1V, V2Q, Q3L, L5E
VL: B9 VL

These binders were tested against partial Rh(D) antigen, D category IVa (human) (assay: Fab/phage agglutination (anti-M13)).

Binder	binding
B1	no binding
B2	no binding
B3	no binding
B4	no binding
B5	no binding
B6	no binding
B7	no binding
B8	no binding
B9	no binding
B10	no binding

What follows are binders tested against partial Rh(D) antigen, D category III (human) (assay: Fab/phage agglutination (anti-M13)).

Binder	binding
B1	binds
B2	binds
B3	binds
B4	binds
B5	no binding
B6	no binding
B7	no binding
B8	no binding
B9	no binding
B10	no binding

Each binder was assayed against partial Rh(D) antigen, D category VII (human) (assay: Fab/phage agglutination (anti-M13)).

Binder	binding
B1	binds
B2	binds
B3	binds
B4	no binding
B5	no binding
B6	no binding
B7	no binding
B8	no binding
B9	no binding
B10	no binding

These binders were tested against partial Rh(D) antigen, D category IVb (human) (assay: Fab/phage agglutination (anti-M13)).

Binder	binding
B1	no binding
B2	no binding
B3	no binding
B4	no binding
B5	no binding
B6	no binding
B7	no binding
B8	no binding
B9	no binding
B10	no binding

Each binder was assayed against partial Rh(D) antigen, D category VI (human) (assay: Fab/phage agglutination (anti-M13)).

Binder	binding
B1	no binding
B2	no binding
B3	no binding
B4	no binding
B5	no binding
B6	no binding
B7	no binding
B8	no binding
B9	no binding
B10	no binding

Each binder was assayed against partial Rh(D) antigen, D category V (human) (assay: Fab/phage agglutination (anti-M13)).

Binder	binding
B1	binds
B2	no binding
B3	binds
B4	no binding
B5	no binding
B6	no binding
B7	no binding
B8	no binding
B9	no binding
B10	no binding

Positions count from the first letter of the chain named. These are yes or no findings as the source states them, for the method shown. For part of these data: Binding can be weak; no strength is given.
